The subject of data set [1] is rat tails. The settings on record: rats, s.c.; calculated from LD 50 and ED 50. The procedure: (§1) The numbering of the compounds is the same as the numbering of the preparative examples. […] The ED50 and LD50 were calculated relative to the base.
Data set [2] in a line: in vivo. Conditions: rat, sc. The procedure:
as §1

In the case of `CN1CC[C@]23c4c5ccc(O)c4O[C@H]2[C@@H](O)C=C[C@H]3[C@H]1C5` [Morphine, reference compound], the “Therapeutic index LD 50 / ED 50” value in data set [1] was 69. The molecule further yielded an LD50 in data set [2] of 122 mg/kg.

A word on the LD50: it is the dose at which mortality reaches 50%. A lower LD50 goes with greater toxicity.

The values are drawn from patent US3936463A, “Benzomorphanes” (priority 1972, dated 1976).
